# Source: the supplement of paper PMC8728848
# The other results are listed elsewhere or left out.
# B1: Erv46-EDTA (Saccharomyces cerevisiae), P39727 (protein)
# chain: MKFLVNVALVFMVVYISYIYAAAPEHHHHHHDYDIPTTENLYFQGAMDSVVTRPQLVVDRDRHAKLELNMDVTFPSMPCDLVNLDIMDDSGEMQLDILDAGFTMSRLNSEGRPVGDATELHVGGNGDGTAPVNNDPNYCGPCYGAKDQSQNENLAQEEKVCCQDCDAVRSAYLEAGWAFFDGKNIEQCEREGYVSKINEHLNEGCRIKGSAQINRIQGNLHFAPGKPYQNAYGHFHDTSLYDKTSNLNFNHIINHLSFGKPIQSHSKLLGNDKRHGGAVVATSPLDGRQVFPDRNTHFHQFSYFAKIVPTRYEYLDNVVIETAQFSATFHSRPLAGGRDKDHPNTLHVRGGIPGMFVFFEMSPLKVINKEQ
# What was measured:
# Assay in all cases: glycan array binding signal (z-score within array); higher = stronger binding
# Details in all cases: glycan notation: IUPAC condensed, linker removed
# [1] = biological target: Glc(b1-4)Glc
# In short: (§1)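 Arrays were curated from the Consortium for Functional Glycomics database, 3228 in total, and kept only where the protein sequence was available. Binding is expressed as a within-array Z-score. This score was averaged across arrays of the same protein sequence at different concentrations or buffers and across linkers, and negative values can be read as non-binding.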
# [2] = biological target: Glc(b1-6)Glc
# In short: as §1
# [3] = biological target: GlcA(b1-3)Gal
# In short: as §1
# [4] = biological target: GlcA(b1-3)GlcNAc
# In short: as §1
# [5] = biological target: GlcA(b1-6)Gal
# In short: as §1
# [6] = biological target: GlcA3S(b1-3)Gal(b1-4)GlcNAc(b1-2)Man
# In short: as §1
# [7] = biological target: GlcA3S(b1-3)Gal(b1-4)GlcNAc(b1-3)Gal(b1-4)Glc
# In short: as §1
# [8] = biological target: GlcNAc(a1-3)Gal(b1-4)GlcNAc
# In short: as §1
# [9] = biological target: GlcNAc(a1-4)Gal(b1-3)GlcNAc
# In short: as §1
# [10] = biological target: GlcNAc(a1-4)Gal(b1-4)GalNAc
# In short: as §1
# [11] = biological target: GlcNAc(a1-4)Gal(b1-4)GlcNAc
# In short: as §1
# [12] = biological target: GlcNAc(a1-4)Gal(b1-4)GlcNAc(b1-3)Gal(b1-4)Glc
# In short: as §1
# [13] = biological target: GlcNAc(a1-4)Gal(b1-4)GlcNAc(b1-3)Gal(b1-4)GlcNAc
# In short: as §1
# [14] = biological target: GlcNAc(a1-4)Gal(b1-4)GlcNAc(b1-3)Gal(b1-4)GlcNAc(b1-3)Gal(b1-4)GlcNAc
# In short: as §1
# [15] = biological target: GlcNAc(a1-4)Gal(b1-4)GlcNAc(b1-3)Gal(b1-4)[Fuc(a1-3)]GlcNAc(b1-3)Gal(b1-4)[Fuc(a1-3)]GlcNAc
# In short: as §1
# [16] = biological target: GlcNAc(a1-6)Gal(b1-4)GlcNAc
# In short: as §1
# [17] = biological target: GlcNAc(b1-2)Gal(b1-3)GalNAc
# In short: as §1
# [18] = biological target: GlcNAc(b1-2)Man(a1-3)[GlcNAc(b1-2)Man(a1-6)]Man(b1-4)GlcNAc(b1-4)GlcNAc
# In short: as §1
# [19] = biological target: GlcNAc(b1-2)Man(a1-3)[GlcNAc(b1-2)Man(a1-6)]Man(b1-4)GlcNAc(b1-4)[Fuc(a1-6)]GlcNAc
# In short: as §1
# [20] = biological target: GlcNAc(b1-2)Man(a1-3)[GlcNAc(b1-4)][GlcNAc(b1-2)Man(a1-6)]Man(b1-4)GlcNAc(b1-4)GlcNAc
# In short: as §1
# [21] = biological target: GlcNAc(b1-2)Man(a1-3)[GlcNAc(b1-4)][GlcNAc(b1-2)Man(a1-6)]Man(b1-4)GlcNAc(b1-4)[Fuc(a1-6)]GlcNAc
# In short: as §1
# [22] = biological target: GlcNAc(b1-2)[GlcNAc(b1-4)]Man(a1-3)[GlcNAc(b1-2)Man(a1-6)]Man(b1-4)GlcNAc(b1-4)GlcNAc
# In short: as §1
# [23] = biological target: GlcNAc(b1-2)[GlcNAc(b1-4)]Man(a1-3)[GlcNAc(b1-4)][GlcNAc(b1-2)Man(a1-6)]Man(b1-4)GlcNAc(b1-4)GlcNAc
# In short: as §1
# [24] = biological target: GlcNAc(b1-2)[GlcNAc(b1-4)]Man(a1-3)[GlcNAc(b1-4)][GlcNAc(b1-2)[GlcNAc(b1-6)]Man(a1-6)]Man(b1-4)GlcNAc(b1-4)GlcNAc
# In short: as §1
# [25] = biological target: GlcNAc(b1-2)[GlcNAc(b1-4)]Man(a1-3)[GlcNAc(b1-4)][GlcNAc(b1-2)[GlcNAc(b1-6)]Man(a1-6)]Man(b1-4)GlcNAc(b1-4)[Fuc(a1-6)]GlcNAc
# In short: as §1
# [26] = biological target: GlcNAc(b1-2)[GlcNAc(b1-6)]Man(a1-6)[GlcNAc(b1-2)Man(a1-3)]Man(b1-4)GlcNAc(b1-4)GlcNAc
# In short: as §1
# [27] = biological target: GlcNAc(b1-2)[GlcNAc(b1-6)]Man(a1-6)[GlcNAc(b1-2)Man(a1-3)]Man(b1-4)GlcNAc(b1-4)[Fuc(a1-6)]GlcNAc
# In short: as §1
# [28] = biological target: GlcNAc(b1-2)[GlcNAc(b1-6)]Man(a1-6)[GlcNAc(b1-4)][GlcNAc(b1-2)Man(a1-3)]Man(b1-4)GlcNAc(b1-4)GlcNAc
# In short: as §1
# [29] = biological target: GlcNAc(b1-3)Fuc
# In short: as §1
# [30] = biological target: GlcNAc(b1-3)Gal
# In short: as §1
# [31] = biological target: GlcNAc(b1-3)Gal(b1-3)GalNAc
# In short: as §1
# [32] = biological target: GlcNAc(b1-3)Gal(b1-4)Glc
# In short: as §1
# [33] = biological target: GlcNAc(b1-3)Gal(b1-4)GlcNAc
# In short: as §1
# [34] = biological target: GlcNAc(b1-3)Gal(b1-4)GlcNAc(b1-2)Man(a1-3)[GlcNAc(b1-3)Gal(b1-4)GlcNAc(b1-2)Man(a1-6)]Man(b1-4)GlcNAc(b1-4)GlcNAc
# In short: as §1
# [35] = biological target: GlcNAc(b1-3)Gal(b1-4)GlcNAc(b1-2)Man(a1-3)[GlcNAc(b1-3)Gal(b1-4)GlcNAc(b1-2)Man(a1-6)]Man(b1-4)GlcNAc(b1-4)[Fuc(a1-6)]GlcNAc
# In short: as §1
# [36] = biological target: GlcNAc(b1-3)Gal(b1-4)GlcNAc(b1-2)[GlcNAc(b1-3)Gal(b1-4)GlcNAc(b1-6)]Man(a1-6)[GlcNAc(b1-3)Gal(b1-4)GlcNAc(b1-2)Man(a1-3)]Man(b1-4)GlcNAc(b1-4)GlcNAc
# In short: as §1
# [37] = biological target: GlcNAc(b1-3)Gal(b1-4)GlcNAc(b1-3)Gal(b1-4)GlcNAc
# In short: as §1
binder,measurement,setting,value
B1,glycan array binding signal (z-score),[1],0.101
same,glycan array binding signal (z-score),[2],-0.619
same,glycan array binding signal (z-score),[3],0.464
same,glycan array binding signal (z-score),[4],0.344
same,glycan array binding signal (z-score),[5],0.539
same,glycan array binding signal (z-score),[6],-0.462
same,glycan array binding signal (z-score),[7],-0.469
same,glycan array binding signal (z-score),[8],-0.01
same,glycan array binding signal (z-score),[9],0.016
same,glycan array binding signal (z-score),[10],-0.091
same,glycan array binding signal (z-score),[11],0.485
same,glycan array binding signal (z-score),[12],-0.465
same,glycan array binding signal (z-score),[13],-0.121
same,glycan array binding signal (z-score),[14],0.219
same,glycan array binding signal (z-score),[15],1.69
same,glycan array binding signal (z-score),[16],-0.3
same,glycan array binding signal (z-score),[17],0.093
same,glycan array binding signal (z-score),[18],-0.215
same,glycan array binding signal (z-score),[19],6.37
same,glycan array binding signal (z-score),[20],-0.327
same,glycan array binding signal (z-score),[21],-0.098
same,glycan array binding signal (z-score),[22],-0.492
same,glycan array binding signal (z-score),[23],0.02
same,glycan array binding signal (z-score),[24],-1.25
same,glycan array binding signal (z-score),[25],-0.418
same,glycan array binding signal (z-score),[26],-0.35
same,glycan array binding signal (z-score),[27],1.14
same,glycan array binding signal (z-score),[28],-0.277
same,glycan array binding signal (z-score),[29],-0.223
same,glycan array binding signal (z-score),[30],-0.088
same,glycan array binding signal (z-score),[31],-0.149
same,glycan array binding signal (z-score),[32],-0.188
same,glycan array binding signal (z-score),[33],-0.67
same,glycan array binding signal (z-score),[34],-0.344
same,glycan array binding signal (z-score),[35],-0.047
same,glycan array binding signal (z-score),[36],2.9
same,glycan array binding signal (z-score),[37],-0.691

# Shown with bars between the fields: entries from further up
binder | measurement | setting | value
B1 | glycan array binding signal (z-score) | [5] | 0.539
same | glycan array binding signal (z-score) | [8] | -0.01
